Results reported in the supplement of paper PMC4604168 (melanoma cell lines).
This is one part of the list. Single values are uncertain, as repeats are few or missing.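 Imaging used 1,536-well plates; nuclei positive for cleaved PARP by antibody were divided by total DNA-stained nuclei to yield the apoptosis fraction. Doses for screening kept most cells viable, and cell lines differ markedly in resting and induced cleaved-PARP levels.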

The compounds below were run on WM3619 (assay: cleaved PARP positive nuclei fraction relative to DMSO control; melanoma cells; higher = more apoptosis). Conditions: library dose: low library concentration; 72 h.

Row | SMILES | cleaved PARP positive nuclei fraction
1 | CC(=O)c1c(C)c2cnc(Nc3ccc(N4CCNCC4)cn3)nc2n(C2CCCC2)c1=O [palbociclib] + CCc1ccc(CCOc2ccc(CC3SC(=O)NC3=O)cc2)nc1 [pioglitazone] (first compound 0.04 µM, partner dose 2 µM) | 117%
2 | Clc1ccc(Nc2nnc(Cc3ccncc3)c3ccccc23)cc1 [vatalanib] + Cn1nnc2c(C(N)=O)ncn2c1=O [temozolomide] (first compound 2 µM, partner dose 2 µM) | 126%
3 | C#Cc1cccc(Nc2ncnc3cc(OCCOC)c(OCCOC)cc23)c1 [erlotinib] + OCCn1cc(-c2cnc3nnn(Cc4ccc5ncccc5c4)c3n2)cn1 [PF04217903] (first compound 0.8 µM, partner dose 1 µM) | 87.5%
4 | Cn1cncc1[C@@](N)(c1ccc(Cl)cc1)c1ccc2c(c1)c(-c1cccc(Cl)c1)cc(=O)n2C [tipifarnib] + Oc1cc(-c2nc(-c3ccccc3)[nH]c2-c2ccncc2)ccc1Cl [L779450] (first compound 0.01 µM, partner dose 0.2 µM) | 109%
5 | Cn1c(Nc2ccc(C(F)(F)F)cc2)nc2cc(Oc3ccnc(-c4ncc(C(F)(F)F)[nH]4)c3)ccc21 + N#Cc1c(O)c2c(-c3ccc(-c4ccccc4O)cc3)csc2[nH]c1=O [A769662] (first compound 0.08 µM, partner dose 2 µM) | 86.3%
6 | O=C(CCCCCCC(=O)Nc1ccccc1)NO [vorinostat] + O=S(=O)(c1ccccc1)N(CC(F)(F)F)c1ccc(C(O)(C(F)(F)F)C(F)(F)F)cc1 [T0901317] (first compound 0.08 µM, partner dose 1.4 µM) | 119%
7 | C[C@]1(c2nc3c(C(N)=O)cccc3[nH]2)CCCN1 [Veliparib] + COc1ccc(-c2ccc3c(N4CCOCC4)nc(N4C[C@@H](C)O[C@@H](C)C4)nc3n2)cc1CO [KU0063794] (first compound 1.4 µM, partner dose 0.02 µM) | 100%
8 | Cn1c(Nc2ccc(C(F)(F)F)cc2)nc2cc(Oc3ccnc(-c4ncc(C(F)(F)F)[nH]4)c3)ccc21 + O=C1NC(=O)/C(=C/c2ccc(-c3ccc(F)cc3O)o2)S1 [AS252424] (first compound 0.08 µM, partner dose 1 µM) | 206%
9 | Cc1cc(N2CCOCC2)cc2[nH]c(-c3c(NC[C@@H](O)c4cccc(Cl)c4)cc[nH]c3=O)nc12 + CCN(CC)CCCCNc1ncc2cc(-c3cc(OC)cc(OC)c3)c(NC(=O)NC(C)(C)C)nc2n1 [PD173074] (first compound 0.2 µM, partner dose 0.1 µM) | 97.5%
10 | Cc1nc(Nc2ncc(C(=O)Nc3c(C)cccc3Cl)s2)cc(N2CCN(CCO)CC2)n1 [dasatanib] + O=C(O)C(=O)Nc1sc2c(c1C(=O)O)CCNC2 [TCS401] (first compound 0.004 µM, partner dose 1.66667 µM) | 123%
11 | Cc1ccc(NC(=O)c2cccc(N(C)C)c2)cc1NC(=O)c1ccc(O)cc1 + N#Cc1c(O)c2c(-c3ccc(-c4ccccc4O)cc3)csc2[nH]c1=O [A769662] (first compound 2 µM, partner dose 2 µM) | 87.8%
12 | C#Cc1cccc(Nc2ncnc3cc(OCCOC)c(OCCOC)cc23)c1 [erlotinib] + N#Cc1c(O)c2c(-c3ccc(-c4ccccc4O)cc3)csc2[nH]c1=O [A769662] (first compound 0.8 µM, partner dose 2 µM) | 66.7%
13 | Nc1cccc2c1CN(C1CCC(=O)NC1=O)C2=O (centres undefined) [lenalidomide] + NC(=O)Nc1cc(-c2cccc(F)c2)sc1C(=O)N[C@H]1CCCNC1 [AZD7762] (first compound 1 µM, partner dose 0.02 µM) | 128%
14 | Nc1cccc2c1CN(C1CCC(=O)NC1=O)C2=O (centres undefined) [lenalidomide] + COc1cc(N2CCC(N3CCN(C)CC3)CC2)ccc1Nc1ncc(Cl)c(Nc2ccccc2S(=O)(=O)C(C)C)n1 [NVP-TAE684] (first compound 1 µM, partner dose 0.08 µM) | 63.3%
15 | NC(=O)Nc1cc(-c2cccc(F)c2)sc1C(=O)N[C@H]1CCCNC1 + O=c1cc(-c2cccc3c2Sc2ccccc2S3)oc(N2CCOCC2)c1 [KU55933] (first compound 0.02 µM, partner dose 1 µM) | 198%
16 | Cc1cc(N2CCOCC2)cc2[nH]c(-c3c(NC[C@@H](O)c4cccc(Cl)c4)cc[nH]c3=O)nc12 + Oc1nc(-c2ccc(C(F)(F)F)cc2)nc2c1CSCC2 [XAV939] (first compound 0.2 µM, partner dose 2 µM) | 200%
17 | Nc1cccc2c1CN(C1CCC(=O)NC1=O)C2=O (centres undefined) [lenalidomide] + C=CCn1c(=O)c2cnc(Nc3ccc(N4CCN(C)CC4)cc3)nc2n1-c1cccc(C(C)(C)O)n1 [MK1775] (first compound 1 µM, partner dose 0.02 µM) | 87.8%
18 | OCc1c[nH]c2ccccc12 [Indole-3-carbinol] + COc1cc(N2CCC(N3CCN(C)CC3)CC2)ccc1Nc1ncc(Cl)c(Nc2ccccc2S(=O)(=O)C(C)C)n1 [NVP-TAE684] (first compound 0.8 µM, partner dose 0.08 µM) | 159%
19 | Clc1ccc(Nc2nnc(Cc3ccncc3)c3ccccc23)cc1 [vatalanib] + C=CCn1c(=O)c2cnc(Nc3ccc(N4CCN(C)CC4)cc3)nc2n1-c1cccc(C(C)(C)O)n1 [MK1775] (first compound 2 µM, partner dose 0.02 µM) | 124%
20 | CO[C@@H]1[C@H](N(C)C(=O)c2ccccc2)C[C@H]2O[C@]1(C)n1c3ccccc3c3c4c(c5c6ccccc6n2c5c31)C(=O)NC4 [Midostaurin] + COc1ccc2c(c1)CCC1C2CCC2(C)C(NCCCCCCN3C(=O)C=CC3=O)CCC12 [U73122] (first compound 0.08 µM, partner dose 0.4 µM) | 84.8%
21 | CC(C)(C)c1cnc(CSc2cnc(NC(=O)C3CCNCC3)s2)o1 + N#Cc1c(O)c2c(-c3ccc(-c4ccccc4O)cc3)csc2[nH]c1=O [A769662] (first compound 0.01 µM, partner dose 2 µM) | 75.2%
22 | Cn1nnc2c(C(N)=O)ncn2c1=O [temozolomide] + O=c1cc(-c2cccc3c2Sc2ccccc2S3)oc(N2CCOCC2)c1 [KU55933] (first compound 2 µM, partner dose 1 µM) | 165%
23 | C[C@@H]1CCN(C(=O)CC#N)C[C@@H]1N(C)c1ncnc2[nH]ccc12 + CCCCCCCCCCCC1=C(O)C(=O)C=C(O)C1=O [Embelin] (first compound 1 µM, partner dose 1.2 µM) | 79.8%
24 | C=CCn1c(=O)c2cnc(Nc3ccc(N4CCN(C)CC4)cc3)nc2n1-c1cccc(C(C)(C)O)n1 + C[C@@H]1CCN(C(=O)CC#N)C[C@@H]1N(C)c1ncnc2[nH]ccc12 [CP690550] (first compound 0.02 µM, partner dose 1 µM) | 201%

Copied from the list.
Value for Cc1nc(Nc2ncc(C(=O)Nc3c(C)cccc3Cl)s2)cc(N2CCN(CCO)CC2)n1 [dasatanib] + O=C(O)C(=O)Nc1sc2c(c1C(=O)O)CCNC2 [TCS401] (first compound 0.004 µM, partner dose 1.66667 µM) under cleaved PARP positive nuclei fraction: 123%
Value for CC(=O)c1c(C)c2cnc(Nc3ccc(N4CCNCC4)cn3)nc2n(C2CCCC2)c1=O [palbociclib] + CCc1ccc(CCOc2ccc(CC3SC(=O)NC3=O)cc2)nc1 [pioglitazone] (first compound 0.04 µM, partner dose 2 µM) under cleaved PARP positive nuclei fraction: 117%
